Measured values from the supplement of paper PMC6411743.
± gives the standard deviation of the averaged measurements. The entries are a selection whose mix differs from that of the whole data set. Small differences around the control level are noise.

Sequences of proteins named here, by UniProt entry; tags and fusion partners are left off. A change or cut given only in a name is not applied to a line headed by its entry.
UniProt O15484: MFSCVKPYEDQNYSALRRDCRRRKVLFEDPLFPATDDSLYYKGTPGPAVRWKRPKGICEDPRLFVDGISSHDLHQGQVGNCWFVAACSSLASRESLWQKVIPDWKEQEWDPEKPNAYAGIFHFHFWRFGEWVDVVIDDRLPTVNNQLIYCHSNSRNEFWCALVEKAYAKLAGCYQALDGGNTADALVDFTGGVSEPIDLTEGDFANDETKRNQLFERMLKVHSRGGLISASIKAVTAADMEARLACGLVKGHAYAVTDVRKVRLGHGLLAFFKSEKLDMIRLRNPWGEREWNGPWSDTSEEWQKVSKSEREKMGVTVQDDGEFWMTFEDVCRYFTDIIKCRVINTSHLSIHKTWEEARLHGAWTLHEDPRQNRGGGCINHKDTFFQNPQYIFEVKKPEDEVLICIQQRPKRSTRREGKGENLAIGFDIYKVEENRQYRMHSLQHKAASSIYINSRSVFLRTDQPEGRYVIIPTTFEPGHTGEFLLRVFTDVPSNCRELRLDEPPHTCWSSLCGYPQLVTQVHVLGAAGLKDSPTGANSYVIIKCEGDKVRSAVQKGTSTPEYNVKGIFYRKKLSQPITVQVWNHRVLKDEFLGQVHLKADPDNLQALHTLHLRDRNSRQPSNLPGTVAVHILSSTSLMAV
UniProt Q9NUI1: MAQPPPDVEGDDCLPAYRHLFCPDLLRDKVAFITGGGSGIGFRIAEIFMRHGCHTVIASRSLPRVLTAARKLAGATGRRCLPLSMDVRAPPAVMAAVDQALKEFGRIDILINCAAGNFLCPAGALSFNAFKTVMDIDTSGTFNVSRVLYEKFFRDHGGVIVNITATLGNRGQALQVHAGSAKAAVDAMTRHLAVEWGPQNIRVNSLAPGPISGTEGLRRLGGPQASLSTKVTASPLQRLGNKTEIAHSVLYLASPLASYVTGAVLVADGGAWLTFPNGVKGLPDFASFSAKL
UniProt Q9Y3B3: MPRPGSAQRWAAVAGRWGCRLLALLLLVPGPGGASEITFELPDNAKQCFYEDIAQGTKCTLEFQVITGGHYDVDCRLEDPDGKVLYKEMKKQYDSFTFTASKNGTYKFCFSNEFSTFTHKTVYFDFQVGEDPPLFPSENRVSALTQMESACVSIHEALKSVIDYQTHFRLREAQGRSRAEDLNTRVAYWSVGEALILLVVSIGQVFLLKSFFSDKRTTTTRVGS
UniProt Q7Z478: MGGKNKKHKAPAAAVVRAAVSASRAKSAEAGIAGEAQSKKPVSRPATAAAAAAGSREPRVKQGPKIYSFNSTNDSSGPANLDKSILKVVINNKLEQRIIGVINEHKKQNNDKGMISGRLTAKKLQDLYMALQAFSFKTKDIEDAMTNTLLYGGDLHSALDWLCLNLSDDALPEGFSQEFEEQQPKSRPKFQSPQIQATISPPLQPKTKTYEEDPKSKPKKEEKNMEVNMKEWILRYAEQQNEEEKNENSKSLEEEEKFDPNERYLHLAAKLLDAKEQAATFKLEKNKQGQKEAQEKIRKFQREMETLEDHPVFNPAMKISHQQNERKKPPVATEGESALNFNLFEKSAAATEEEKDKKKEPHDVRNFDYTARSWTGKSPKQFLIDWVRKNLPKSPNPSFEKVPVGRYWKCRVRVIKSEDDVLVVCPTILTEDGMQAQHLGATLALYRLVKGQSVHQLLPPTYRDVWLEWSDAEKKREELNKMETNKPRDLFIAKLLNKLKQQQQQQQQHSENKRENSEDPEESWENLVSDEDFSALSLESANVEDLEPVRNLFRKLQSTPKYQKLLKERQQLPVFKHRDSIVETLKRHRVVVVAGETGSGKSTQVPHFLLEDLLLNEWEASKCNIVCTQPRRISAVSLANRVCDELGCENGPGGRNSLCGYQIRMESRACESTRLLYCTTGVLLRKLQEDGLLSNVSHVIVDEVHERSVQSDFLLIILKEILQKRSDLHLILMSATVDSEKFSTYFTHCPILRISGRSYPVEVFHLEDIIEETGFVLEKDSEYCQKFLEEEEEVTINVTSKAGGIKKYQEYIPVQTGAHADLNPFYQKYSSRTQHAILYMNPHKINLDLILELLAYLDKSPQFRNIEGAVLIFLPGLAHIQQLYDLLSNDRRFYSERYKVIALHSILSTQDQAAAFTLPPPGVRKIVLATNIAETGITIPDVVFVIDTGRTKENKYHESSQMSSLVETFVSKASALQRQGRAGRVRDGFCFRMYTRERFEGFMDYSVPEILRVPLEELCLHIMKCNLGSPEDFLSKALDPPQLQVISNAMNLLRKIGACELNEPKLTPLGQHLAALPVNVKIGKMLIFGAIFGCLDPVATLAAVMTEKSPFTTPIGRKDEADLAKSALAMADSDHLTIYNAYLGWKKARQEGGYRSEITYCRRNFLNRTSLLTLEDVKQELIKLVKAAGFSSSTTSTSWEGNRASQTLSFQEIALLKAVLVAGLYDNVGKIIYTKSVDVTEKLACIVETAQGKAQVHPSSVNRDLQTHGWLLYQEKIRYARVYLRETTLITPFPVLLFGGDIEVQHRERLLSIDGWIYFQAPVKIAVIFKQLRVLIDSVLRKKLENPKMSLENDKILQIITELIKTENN
UniProt Q92544: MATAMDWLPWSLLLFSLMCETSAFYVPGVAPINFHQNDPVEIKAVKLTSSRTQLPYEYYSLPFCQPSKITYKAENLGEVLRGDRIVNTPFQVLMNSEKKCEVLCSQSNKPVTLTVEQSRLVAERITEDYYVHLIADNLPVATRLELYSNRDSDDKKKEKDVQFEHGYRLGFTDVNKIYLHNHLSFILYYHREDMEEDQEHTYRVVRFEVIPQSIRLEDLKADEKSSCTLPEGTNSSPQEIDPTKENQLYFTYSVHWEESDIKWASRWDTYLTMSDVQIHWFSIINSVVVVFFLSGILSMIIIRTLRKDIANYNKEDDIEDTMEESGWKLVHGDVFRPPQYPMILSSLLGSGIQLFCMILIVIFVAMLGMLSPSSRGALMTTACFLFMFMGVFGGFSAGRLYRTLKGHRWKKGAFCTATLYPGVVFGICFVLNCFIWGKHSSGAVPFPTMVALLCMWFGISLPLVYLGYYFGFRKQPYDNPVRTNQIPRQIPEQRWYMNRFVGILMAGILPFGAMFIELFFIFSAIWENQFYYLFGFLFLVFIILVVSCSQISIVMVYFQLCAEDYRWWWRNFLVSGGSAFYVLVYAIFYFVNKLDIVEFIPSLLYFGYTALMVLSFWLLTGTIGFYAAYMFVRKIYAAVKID
UniProt P46939: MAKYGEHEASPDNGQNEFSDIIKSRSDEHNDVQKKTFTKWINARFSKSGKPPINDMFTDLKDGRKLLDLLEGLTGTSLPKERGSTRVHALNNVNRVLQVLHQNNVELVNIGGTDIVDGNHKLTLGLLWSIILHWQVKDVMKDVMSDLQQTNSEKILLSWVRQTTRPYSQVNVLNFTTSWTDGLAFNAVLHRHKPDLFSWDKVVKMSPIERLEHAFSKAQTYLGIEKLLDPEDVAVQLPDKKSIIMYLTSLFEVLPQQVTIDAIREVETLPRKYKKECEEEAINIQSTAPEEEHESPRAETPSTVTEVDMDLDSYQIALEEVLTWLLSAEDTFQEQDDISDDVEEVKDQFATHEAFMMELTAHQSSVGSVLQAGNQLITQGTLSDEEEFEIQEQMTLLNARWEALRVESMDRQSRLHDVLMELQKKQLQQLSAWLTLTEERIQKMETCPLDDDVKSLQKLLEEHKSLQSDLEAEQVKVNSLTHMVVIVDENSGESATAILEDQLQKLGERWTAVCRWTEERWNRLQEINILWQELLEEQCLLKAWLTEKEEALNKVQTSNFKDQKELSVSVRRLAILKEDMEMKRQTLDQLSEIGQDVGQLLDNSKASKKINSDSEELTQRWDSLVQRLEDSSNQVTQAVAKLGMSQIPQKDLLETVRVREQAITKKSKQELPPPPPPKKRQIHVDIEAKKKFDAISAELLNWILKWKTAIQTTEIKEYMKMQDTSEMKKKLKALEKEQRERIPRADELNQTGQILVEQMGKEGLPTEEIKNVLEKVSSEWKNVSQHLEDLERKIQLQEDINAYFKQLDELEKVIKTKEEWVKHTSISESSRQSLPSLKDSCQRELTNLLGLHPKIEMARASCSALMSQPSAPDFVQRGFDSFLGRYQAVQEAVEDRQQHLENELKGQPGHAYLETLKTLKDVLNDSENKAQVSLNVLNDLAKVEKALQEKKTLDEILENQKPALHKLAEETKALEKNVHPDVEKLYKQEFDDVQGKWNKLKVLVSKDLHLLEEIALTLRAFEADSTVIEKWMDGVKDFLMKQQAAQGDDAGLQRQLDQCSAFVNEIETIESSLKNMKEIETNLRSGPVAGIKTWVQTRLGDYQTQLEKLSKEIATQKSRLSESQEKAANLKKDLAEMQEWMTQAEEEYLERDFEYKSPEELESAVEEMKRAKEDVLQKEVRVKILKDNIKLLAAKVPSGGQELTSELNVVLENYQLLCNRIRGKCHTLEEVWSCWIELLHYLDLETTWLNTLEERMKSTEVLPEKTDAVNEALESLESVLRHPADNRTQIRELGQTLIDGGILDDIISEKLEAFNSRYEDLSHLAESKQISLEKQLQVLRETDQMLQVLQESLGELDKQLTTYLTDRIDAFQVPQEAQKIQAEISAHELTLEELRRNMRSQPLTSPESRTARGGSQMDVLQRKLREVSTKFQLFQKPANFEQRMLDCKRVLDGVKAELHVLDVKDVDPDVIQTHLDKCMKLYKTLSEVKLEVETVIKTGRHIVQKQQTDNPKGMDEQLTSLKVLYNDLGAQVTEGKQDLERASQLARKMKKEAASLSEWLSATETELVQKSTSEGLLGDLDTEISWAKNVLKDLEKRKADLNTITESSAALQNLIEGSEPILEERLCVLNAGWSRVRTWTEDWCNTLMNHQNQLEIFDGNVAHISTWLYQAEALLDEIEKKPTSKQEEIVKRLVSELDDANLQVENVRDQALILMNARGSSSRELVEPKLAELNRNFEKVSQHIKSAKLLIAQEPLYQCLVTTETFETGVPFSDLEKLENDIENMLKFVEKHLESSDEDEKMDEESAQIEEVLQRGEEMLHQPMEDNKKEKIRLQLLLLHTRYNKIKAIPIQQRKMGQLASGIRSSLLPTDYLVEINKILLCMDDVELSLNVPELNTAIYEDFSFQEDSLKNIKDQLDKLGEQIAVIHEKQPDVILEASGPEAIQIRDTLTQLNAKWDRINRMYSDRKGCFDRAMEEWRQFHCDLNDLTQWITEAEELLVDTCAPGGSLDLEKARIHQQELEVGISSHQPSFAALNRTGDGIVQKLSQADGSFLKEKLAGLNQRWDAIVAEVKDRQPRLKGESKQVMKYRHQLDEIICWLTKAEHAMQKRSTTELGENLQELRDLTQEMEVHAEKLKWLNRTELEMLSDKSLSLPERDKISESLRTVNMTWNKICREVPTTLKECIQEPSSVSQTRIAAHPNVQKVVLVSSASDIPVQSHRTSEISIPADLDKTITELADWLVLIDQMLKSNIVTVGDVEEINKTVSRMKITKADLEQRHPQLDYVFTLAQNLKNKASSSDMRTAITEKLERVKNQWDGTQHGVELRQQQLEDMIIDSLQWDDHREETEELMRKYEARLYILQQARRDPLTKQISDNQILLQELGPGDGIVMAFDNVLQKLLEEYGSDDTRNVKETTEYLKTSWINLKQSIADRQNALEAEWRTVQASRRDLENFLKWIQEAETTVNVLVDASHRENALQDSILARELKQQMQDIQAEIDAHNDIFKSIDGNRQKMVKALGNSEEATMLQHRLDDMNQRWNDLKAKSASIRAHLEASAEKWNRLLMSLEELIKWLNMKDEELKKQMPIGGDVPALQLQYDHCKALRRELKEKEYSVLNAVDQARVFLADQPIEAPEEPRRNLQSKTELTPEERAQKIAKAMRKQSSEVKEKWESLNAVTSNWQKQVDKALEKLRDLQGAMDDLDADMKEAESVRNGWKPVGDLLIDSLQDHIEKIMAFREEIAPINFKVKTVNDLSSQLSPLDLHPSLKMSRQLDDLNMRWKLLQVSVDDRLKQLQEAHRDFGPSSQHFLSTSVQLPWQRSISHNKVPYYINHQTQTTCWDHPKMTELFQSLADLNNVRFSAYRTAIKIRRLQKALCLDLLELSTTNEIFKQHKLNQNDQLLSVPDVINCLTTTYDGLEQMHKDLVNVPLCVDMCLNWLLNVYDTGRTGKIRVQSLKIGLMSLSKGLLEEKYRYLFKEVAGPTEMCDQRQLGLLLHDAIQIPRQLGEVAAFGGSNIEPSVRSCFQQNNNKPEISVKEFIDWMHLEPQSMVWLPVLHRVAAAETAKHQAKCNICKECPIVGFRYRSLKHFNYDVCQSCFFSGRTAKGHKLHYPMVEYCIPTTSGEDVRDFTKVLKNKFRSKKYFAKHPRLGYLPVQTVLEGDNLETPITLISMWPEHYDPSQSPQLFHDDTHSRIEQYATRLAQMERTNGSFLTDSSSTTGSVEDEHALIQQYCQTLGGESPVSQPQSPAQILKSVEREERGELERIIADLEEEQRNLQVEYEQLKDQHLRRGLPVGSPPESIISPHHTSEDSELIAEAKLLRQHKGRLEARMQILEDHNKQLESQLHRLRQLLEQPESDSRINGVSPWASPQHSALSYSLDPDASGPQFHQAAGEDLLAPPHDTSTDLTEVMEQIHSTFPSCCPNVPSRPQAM

Compound: Nc1ncnc2c1ncn2[C@@H]1O[C@H](COP(=O)(O)OP(=O)(O)NP(=O)(O)O)[C@@H](O)[C@H]1O [adenylyl imidodiphosphate]
Assay: NP40-soluble protein abundance relative to vehicle (solubility fold change) (ratio); higher = more soluble protein in presence of AMP-PNP
Outline: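 Data come from three independent experiments in which Dounce-homogenised Jurkat crude lysate was treated at eight concentrations from 0.1 to 10 mM. Treatment ran 10 min at room temperature and then 3 min at 37 °C, after which 0.8% NP40 and benzonase were added for 60 min at 4 °C before ultracentrifugation. The supernatant underwent TMT labelling and LC-MS/MS, and vsn-normalised intensities were expressed as fold change against the detergent-processed vehicle in each replicate.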

“A0A087X0C8|O15484 and related entries (UniProt O15484)” gave an NP40-soluble protein abundance (concentration: 0.1mM) of 0.995 ± 0.01 and an NP40-soluble protein abundance (concentration: 0.5mM) of 0.997 ± 0.054.

Target “A0A0J9YXZ6|A0A0J9YY83|Q4VXZ8 and related entries (UniProt Q9NUI1)” has an NP40-soluble protein abundance (concentration: 0.1mM) of 1.01 ± 0.031 and an NP40-soluble protein abundance (concentration: 0.5mM) of 0.993 ± 0.049.

A0A0C4DFZ2|P15289 (UniProt P15289) showed an NP40-soluble protein abundance (concentration: 0.1mM) of 1.01 ± 0.036 and an NP40-soluble protein abundance (concentration: 0.5mM) of 0.998 ± 0.014.

With “A0A0D9SEU5|Q6VN20 and related entries (UniProt Q6VN20)” the NP40-soluble protein abundance (concentration: 0.1mM) was 0.994 ± 0.031 and the NP40-soluble protein abundance (concentration: 0.5mM) was 0.988 ± 0.032.

In the case of “A0A0A6YYA0|Q86XR7-2|Q9Y3B3 and related entries (UniProt Q9Y3B3+Q86XR7)”, the NP40-soluble protein abundance (concentration: 0.1mM) is reported as 0.9861 ± 0.0035 and the NP40-soluble protein abundance (concentration: 0.5mM) is reported as 0.973 ± 0.051.

Target “A0A087X1A8|F5H211 and related entries (UniProt P54252)” has an NP40-soluble protein abundance (concentration: 0.1mM) of 0.974 ± 0.024 and an NP40-soluble protein abundance (concentration: 0.5mM) of 0.989 ± 0.025.

A0A0C4DGZ0 (UniProt P24928) gave an NP40-soluble protein abundance (concentration: 0.1mM) of 1.03 ± 0.015 and an NP40-soluble protein abundance (concentration: 0.5mM) of 0.994 ± 0.045.

“A0A0G2JR50|Q86SQ7 and related entries (UniProt Q86SQ7)” was tested, and the NP40-soluble protein abundance (concentration: 0.1mM) was 0.987 ± 0.022 and the NP40-soluble protein abundance (concentration: 0.5mM) was 0.966 ± 0.032.

A0A087WYN9|Q7Z478 (UniProt Q7Z478) was tested, and the NP40-soluble protein abundance (concentration: 0.1mM) was 1.13 ± 0.026 and the NP40-soluble protein abundance (concentration: 0.5mM) was 1.18 ± 0.047.

Work on “A0JP02 and related entries (UniProt Q9HAU0)” yielded an NP40-soluble protein abundance (concentration: 0.1mM) of 1.01 ± 0.035 and an NP40-soluble protein abundance (concentration: 0.5mM) of 1.01 ± 0.042.

For A0A0C4DFM1|Q92544 (UniProt Q92544), the NP40-soluble protein abundance (concentration: 0.1mM) was 1.02 ± 0.032 and the NP40-soluble protein abundance (concentration: 0.5mM) was 0.988 ± 0.066.

Target A0A0C4DGC9|Q8TDR2 (UniProt Q8TDR2) has an NP40-soluble protein abundance (concentration: 0.1mM) of 0.9978 ± 0.0093 and an NP40-soluble protein abundance (concentration: 0.5mM) of 1.02 ± 0.025.

Target “A0A0A0MRJ6|C9J0F2 and related entries (UniProt P22061)” has an NP40-soluble protein abundance (concentration: 0.1mM) of 1.01 ± 0.037 and an NP40-soluble protein abundance (concentration: 0.5mM) of 1.01 ± 0.028.

Work on “A0A0C4DG21|E7EP65 and related entries (UniProt Q9NYB9)” yielded an NP40-soluble protein abundance (concentration: 0.1mM) of 0.974 ± 0.024 and an NP40-soluble protein abundance (concentration: 0.5mM) of 0.994 ± 0.042.

With “A0A0A0MSM3|P46939 and related entries (UniProt P46939)” the NP40-soluble protein abundance (concentration: 0.1mM) was 0.983 ± 0.016 and the NP40-soluble protein abundance (concentration: 0.5mM) was 0.991 ± 0.029.

“A0A0A6YYJ5|E9PLY5 and related entries (UniProt Q9UPN3+H3BQK9+H3BPE1+E9PLY5)” gave an NP40-soluble protein abundance (concentration: 0.1mM) of 0.979 ± 0.025 and an NP40-soluble protein abundance (concentration: 0.5mM) of 0.979 ± 0.029.

For “A0A0A0MTP3|Q99550 and related entries (UniProt Q99550)”, the NP40-soluble protein abundance (concentration: 0.1mM) was 1.006 ± 0.0073 and the NP40-soluble protein abundance (concentration: 0.5mM) was 0.96 ± 0.047.

“A0A0D9SGE8|Q8IWS0 and related entries (UniProt Q8IWS0)” gave an NP40-soluble protein abundance (concentration: 0.1mM) of 1 ± 0.015 and an NP40-soluble protein abundance (concentration: 0.5mM) of 1.01 ± 0.023.
